Test results published in PubChem BioAssay AID186 (DTP/NCI, 2004).
Values are animals surviving of animals treated; these mice carried no tumour. Counts of survivors are from the toxicity check (mostly the fifth day) where no day follows; animals may have died later. Schedules are NCI's codes, taken here to give the interval after Q, in days (D) or hours (H), and the number of doses after X. Additions like (4×) count equal records among those shown. Some entries were tested several times; the values are given in rising order.

Test system: B6D2F1 mice, nontumored toxicity test, survival
Assay: NCI In Vivo Anticancer Drug Screen. Data for tumor model Nontumored Animals (Toxicity Test) in B6D2F1 (BDF1) mice

OCCO
survivor count (dose: 72.0 mg/kg/injection, schedule: Q01DX001 (ip), vehicle: other): 10 of 10 | survivor count (dose: 102.0 mg/kg/injection, schedule: Q01DX001 (ip), vehicle: other): 10 of 10 | survivor count (dose: 153.0 mg/kg/injection, schedule: Q01DX001 (ip), vehicle: other): 10 of 10 | survivor count (dose: 204.0 mg/kg/injection, schedule: Q01DX001 (ip), vehicle: other): 10 of 10 | survivor count (dose: 305.0 mg/kg/injection, schedule: Q01DX001 (ip), vehicle: other): 10 of 10 | survivor count (dose: 408.0 mg/kg/injection, schedule: Q01DX001 (ip), vehicle: other): 10 of 10 | survivor count (dose: 0.6 grams/kg/injection, schedule: Q01DX001 (ip), vehicle: other): 10 of 10 | survivor count (dose: 610.0 mg/kg/injection, schedule: Q01DX001 (ip), vehicle: other): 10 of 10 | survivor count (dose: 815.0 mg/kg/injection, schedule: Q01DX001 (ip), vehicle: other): 10 of 10 | survivor count (dose: 1219.0 mg/kg/injection, schedule: Q01DX001 (ip), vehicle: other): 9 of 10 | survivor count (dose: 1.3 grams/kg/injection, schedule: Q01DX001 (ip), vehicle: other): 10 of 10 | survivor count (dose: 1630.0 mg/kg/injection, schedule: Q01DX001 (ip), vehicle: other): 8 of 10 | survivor count (dose: 2.5 grams/kg/injection, schedule: Q01DX001 (ip), vehicle: other): 10 of 10 | survivor count (dose: 5.0 grams/kg/injection, schedule: Q01DX001 (ip), vehicle: other): 10 of 10 | survivor count (dose: 5.0 grams/kg/injection, schedule: Q01DX002 (ip), vehicle: other): 9 of 10 | survivor count (dose: 5.0 grams/kg/injection, schedule: Q01DX003 (ip), vehicle: other): 10 of 10 | survivor count (dose: 5.0 grams/kg/injection, schedule: Q01DX004 (ip), vehicle: other): 10 of 10 | survivor count (dose: 5.0 grams/kg/injection, schedule: Q01DX005 (ip), vehicle: other): 9 of 10 | survivor count (dose: 5.0 grams/kg/injection, schedule: Q01DX006 (ip), vehicle: other): 10 of 10 | survivor count (dose: 5.0 grams/kg/injection, schedule: Q01DX007 (ip), vehicle: other): 10 of 10 | survivor count (dose: 5.0 grams/kg/injection, schedule: Q01DX008 (ip), vehicle: other): 3 of 10 | survivor count (dose: 5.0 grams/kg/injection, schedule: Q01DX009 (ip), vehicle: other): 5 of 10

CCOC(=O)C(CC(C)C)NC(=O)C(Cc1ccc(N(CCCl)CCCl)cc1)NC(C)=O (stereo unspecified)
survivor count (dose: 62.5 mg/kg/injection, schedule: Q01DX001 (oral), vehicle: alcohol): 10 of 10 | survivor count (dose: 125.0 mg/kg/injection, schedule: Q01DX001 (oral), vehicle: alcohol): 9 of 10 | survivor count (dose: 250.0 mg/kg/injection, schedule: Q01DX001 (oral), vehicle: alcohol): 10 of 10 | survivor count (dose: 500.0 mg/kg/injection, schedule: Q01DX001 (oral), vehicle: alcohol): 10 of 10

S=c1nc[nH]c2nc[nH]c12
survivor count (dose: 9.38 mg/kg/injection, schedule: Q01DX009 (ip), vehicle: alkali diluted with water): 5 of 5 | survivor count (dose: 11.25 mg/kg/injection, schedule: Q03HX015 (ip), vehicle: saline): 8 of 8 | survivor count (dose: 18.8 mg/kg/injection, schedule: Q01DX009 (ip), vehicle: alkali diluted with water): 5 of 5 | survivor count (dose: 22.5 mg/kg/injection, schedule: Q03HX015 (ip), vehicle: saline): 8 of 8 | survivor count (dose: 37.5 mg/kg/injection, schedule: Q01DX009 (ip), vehicle: alkali diluted with water): 5 of 5 | survivor count (dose: 60.0 mg/kg/injection, schedule: Q01HX006 (ip), vehicle: saline): 8 of 8 | survivor count (dose: 60.0 mg/kg/injection, schedule: Q08DX002 (ip), vehicle: saline): 8 of 8 | survivor count (dose: 75.0 mg/kg/injection, schedule: Q01DX009 (ip), vehicle: alkali diluted with water): 5 of 5 | survivor count (dose: 90.0 mg/kg/injection, schedule: Q01DX005 (ip), vehicle: saline): 8 of 8 | survivor count (dose: 90.0 mg/kg/injection, schedule: Q01HX006 (ip), vehicle: saline): 8 of 8 | survivor count (dose: 90.0 mg/kg/injection, schedule: Q08DX002 (ip), vehicle: saline): 8 of 8 | survivor count (dose: 120.0 mg/kg/injection, schedule: Q01HX006 (ip), vehicle: saline): 8 of 8 | survivor count (dose: 150.0 mg/kg/injection, schedule: Q01DX009 (ip), vehicle: alkali diluted with water): 5 of 5 | survivor count (dose: 180.0 mg/kg/injection, schedule: Q01DX005 (ip), vehicle: saline): 8 of 8 | survivor count (dose: 180.0 mg/kg/injection, schedule: Q08DX002 (ip), vehicle: saline): 8 of 8 | survivor count (dose: 270.0 mg/kg/injection, schedule: Q08DX002 (ip), vehicle: saline): 8 of 8 | survivor count (dose: 360.0 mg/kg/injection, schedule: Q08DX002 (ip), vehicle: saline): 8 of 8

O=c1cnn(C2OC(CO)C(O)C2O)c(=O)[nH]1 (stereo unspecified)
survivor count (dose: 32.0 mg/kg/injection, schedule: Q01DX009 (ip), vehicle: saline): 8 of 8 | survivor count (dose: 32.0 mg/kg/injection, schedule: Q01DX009 (oral), vehicle: saline): 8 of 8 | survivor count (dose: 64.0 mg/kg/injection, schedule: Q01DX009 (ip), vehicle: saline): 8 of 8 | survivor count (dose: 64.0 mg/kg/injection, schedule: Q01DX009 (oral), vehicle: saline): 8 of 8 | survivor count (dose: 128.0 mg/kg/injection, schedule: Q01DX009 (ip), vehicle: saline): 8 of 8 | survivor count (dose: 128.0 mg/kg/injection, schedule: Q01DX009 (oral), vehicle: saline): 8 of 8 | survivor count (dose: 128.0 mg/kg/injection, schedule: Q03HX016 (ip), vehicle: saline): 8 of 8 | survivor count (dose: 128.0 mg/kg/injection, schedule: Q03HX016 (oral), vehicle: saline): 8 of 8 | survivor count (dose: 256.0 mg/kg/injection, schedule: Q01DX009 (ip), vehicle: saline): 8 of 8 | survivor count (dose: 256.0 mg/kg/injection, schedule: Q01DX009 (oral), vehicle: saline): 8 of 8 | survivor count (dose: 256.0 mg/kg/injection, schedule: Q03HX016 (ip), vehicle: saline): 7 of 8 | survivor count (dose: 256.0 mg/kg/injection, schedule: Q03HX016 (oral), vehicle: saline): 7 of 8 | survivor count (dose: 512.0 mg/kg/injection, schedule: Q03HX016 (ip), vehicle: saline): 7 of 7 | survivor count (dose: 512.0 mg/kg/injection, schedule: Q03HX016 (oral), vehicle: saline): 8 of 8 | survivor count (dose: 1024.0 mg/kg/injection, schedule: Q03HX016 (ip), vehicle: saline): 7 of 7 | survivor count (dose: 1024.0 mg/kg/injection, schedule: Q03HX016 (oral), vehicle: saline): 6 of 8 | survivor count (dose: 2048.0 mg/kg/injection, schedule: Q03HX016 (ip), vehicle: saline): 6 of 8 | survivor count (dose: 2048.0 mg/kg/injection, schedule: Q03HX016 (oral), vehicle: saline): 5 of 8

O=C1C(=O)c2ccccc2C(O)=C1CC=C(Cl)Cl
survivor count (dose: 10.0 mg/kg/injection, schedule: Q01DX009 (ip), vehicle: alkali diluted with water): 10 of 10 | survivor count (dose: 20.0 mg/kg/injection, schedule: Q01DX009 (ip), vehicle: alkali diluted with water): 10 of 10 | survivor count (dose: 30.0 mg/kg/injection, schedule: Q01DX009 (ip), vehicle: alkali diluted with water): 10 of 10 | survivor count (dose: 40.0 mg/kg/injection, schedule: Q01DX009 (ip), vehicle: alkali diluted with water): 10 of 10 | survivor count (dose: 50.0 mg/kg/injection, schedule: Q01DX009 (ip), vehicle: alkali diluted with water): 10 of 10

COC1C(NC(=O)N(CCCl)N=O)C(OC(C)=O)OC(COC(C)=O)C1OC(C)=O (stereo unspecified)
survivor count (dose: 1.8 mg/kg/injection, schedule: Q01DX001 (ip), vehicle: saline with Tween-80): 10 of 10 (2×) | survivor count (dose: 2.6 mg/kg/injection, schedule: Q01DX001 (ip), vehicle: saline with Tween-80): 10 of 10 (2×) | survivor count (dose: 4.0 mg/kg/injection, schedule: Q01DX001 (ip), vehicle: saline with Tween-80): 9 of 9 (2×) | survivor count (dose: 6.0 mg/kg/injection, schedule: Q01DX001 (ip), vehicle: saline with Tween-80): 10 of 10 (2×)

O=c1[nH]c(=O)n(C2CC(O)C(CO)O2)cc1C(F)(F)F (stereo unspecified)
survivor count (dose: 8.0 mg/kg/injection, schedule: Q03HX024 (ip), vehicle: water): 6 of 6 | survivor count (dose: 16.0 mg/kg/injection, schedule: Q01DX009 (ip), vehicle: water): 6 of 6 | survivor count (dose: 16.0 mg/kg/injection, schedule: Q03HX024 (ip), vehicle: water): 6 of 6 | survivor count (dose: 32.0 mg/kg/injection, schedule: Q01DX009 (ip), vehicle: water): 6 of 6 | survivor count (dose: 32.0 mg/kg/injection, schedule: Q03HX024 (ip), vehicle: water): 6 of 6 | survivor count (dose: 64.0 mg/kg/injection, schedule: Q01DX009 (ip), vehicle: water): 6 of 6 | survivor count (dose: 64.0 mg/kg/injection, schedule: Q03HX016 (ip), vehicle: water): 6 of 6 | survivor count (dose: 64.0 mg/kg/injection, schedule: Q03HX024 (ip), vehicle: water): 6 of 6 | survivor count (dose: 128.0 mg/kg/injection, schedule: Q01DX009 (ip), vehicle: water): 6 of 6 | survivor count (dose: 128.0 mg/kg/injection, schedule: Q03HX016 (ip), vehicle: water): 6 of 6 | survivor count (dose: 256.0 mg/kg/injection, schedule: Q01DX009 (ip), vehicle: water): 6 of 6 | survivor count (dose: 256.0 mg/kg/injection, schedule: Q03HX016 (ip), vehicle: water): 6 of 6 | survivor count (dose: 256.0 mg/kg/injection, schedule: Q04DX003 (ip), vehicle: water): 6 of 6 | survivor count (dose: 512.0 mg/kg/injection, schedule: Q03HX016 (ip), vehicle: water): 6 of 6 | survivor count (dose: 512.0 mg/kg/injection, schedule: Q04DX003 (ip), vehicle: water): 6 of 6 | survivor count (dose: 1024.0 mg/kg/injection, schedule: Q04DX003 (ip), vehicle: water): 6 of 6 | survivor count (dose: 2048.0 mg/kg/injection, schedule: Q04DX003 (ip), vehicle: water): 6 of 6

COC1=C(OC)C(=O)C(C/C=C(\C)CC/C=C(\C)CC/C=C(\C)CC/C=C(\C)CC/C=C(\C)CC/C=C(\C)CC/C=C(\C)CC/C=C(\C)CCC=C(C)C)=C(C)C1=O
survivor count (dose: 5.0 mg/kg/injection, schedule: Q01DX025 (ip), vehicle: saline with Tween-80): 8 of 9 and 10 of 10 | survivor count (dose: 10.0 mg/kg/injection, schedule: Q01DX025 (ip), vehicle: saline with Tween-80): 10 of 10 | survivor count (dose: 20.0 mg/kg/injection, schedule: Q01DX025 (ip), vehicle: saline with Tween-80): 10 of 10 | survivor count (dose: 40.0 mg/kg/injection, schedule: Q01DX025 (ip), vehicle: saline with Tween-80): 8 of 9
